Some of these results come from one statement about several compounds together.
Assays:
[1] = tested on: black bean aphids (Aphis fabae); experiment: Method B: root-systemic test, aqueous solution of the formulated preparation pipetted into the bottle of field bean (Vicia faba) populated with aphids; assay type: in vivo; settings: 10 ppm (based on content of active compound); 4 ml solution pipetted into bottle; after 3 and 6 days of storage
Procedure: Germinated field bean seeds (Vicia faba) with seed roots were transferred into brown glass bottles filled with tap water. Four milliliters of an aqueous solution of the formulated preparation to be examined were pipetted into the brown glass bottle.
The field bean was then heavily populated with about 100 black bean aphids (Aphis fabae). Plants and aphids were then stored in a climatized chamber (16 hours of light/day, 25° C., 40-60% relative atmospheric humidity). After 3 and 6 days of storage, the root-systemic effect of the preparation on the aphids was determined.

[2] = tested on: black bean aphids (Aphis fabae); settings: 100 ppm (based on content of active compound); plants and aphids dipped 5 seconds; after 3 and 6 days of storage

## COC(=O)CSC(=NC(=O)c1cnccc1C(F)(F)F)N(C)c1ccccc1 [Compound A-1329]
[1]
  mortality among the aphids, by root-systemic action: at least 80%
[2]
  mortality among the aphids: at least 50%

## C=CCSC(=NC(=O)c1cnccc1C(F)(F)F)NCC(C)C [Compound A-437]
[2]
  mortality among the aphids: at least 50%

## C=CCSC(=NC(=O)c1cnccc1C(F)(F)F)N(N=C(C)C)c1ccccc1 [Compound A-1432]
[2]
  mortality among the aphids: at least 50%

## CCSC(=NC(=O)c1cnccc1C(F)(F)F)N(C)C [Compound A-54]
[1]
  mortality among the aphids, by root-systemic action: at least 80%

## Cn1ccsc1=NC(=O)c1cnccc1C(F)(F)F [Compound E-74]
[1]
  mortality among the aphids, by root-systemic action: at least 80%
[2]
  mortality among the aphids: at least 50%

## CN(C)C(=NC(=O)c1cnccc1C(F)(F)F)SCc1ccccc1 [Compound A-89]
[1]
  mortality among the aphids, by root-systemic action: at least 80%

## C=CCSC(=NC(=O)c1cnccc1C(F)(F)F)Nc1cccc(C(F)(F)F)c1 [Compound A-1437]
[2]
  mortality among the aphids: at least 50%

## CC1SC(=NC(=O)c2cnccc2C(F)(F)F)N(Cc2ccccc2)C1=O [Compound D-246]
[2]
  mortality among the aphids: at least 50%

## CSC(=NC(=O)c1cnccc1C(F)(F)F)NCc1ccccc1 [Compound A-714]
[1]
  mortality among the aphids, by root-systemic action: at least 80%
[2]
  mortality among the aphids: at least 50%

## C=CCSC(=NC(=O)c1cnccc1C(F)(F)F)N1CCOCC1 [Compound A-1145]
[1]
  mortality among the aphids, by root-systemic action: at least 80%
[2]
  mortality among the aphids: at least 50%

## CC(C)N1C(=O)C(C)(C)SC1=NC(=O)c1cnccc1C(F)(F)F [Compound D-313]
[1]
  mortality among the aphids, by root-systemic action: at least 80%
[2]
  mortality among the aphids: at least 50%

## C=CCSC(=NC(=O)c1cnccc1C(F)(F)F)NC(C)C [Compound A-229]
[2]
  mortality among the aphids: at least 50%

## O=C(N=C1OCCS1)c1cnccc1C(F)(F)F [Compound K-1]
[1]
  mortality among the aphids, by root-systemic action: at least 80%
[2]
  mortality among the aphids: at least 50%

## CC(C)SC(=NC(=O)c1cnccc1C(F)(F)F)N(C)C [Compound A-56]
[1]
  mortality among the aphids, by root-systemic action: at least 80%

## C#CCSC(=NC(=O)c1cnccc1C(F)(F)F)N(C)C [Compound A-72]
[1]
  mortality among the aphids, by root-systemic action: at least 80%
[2]
  mortality among the aphids: at least 50%

## CCN1CCSC1=NC(=O)c1cnccc1C(F)(F)F [Compound D-3]
[1]
  mortality among the aphids, by root-systemic action: at least 80%
[2]
  mortality among the aphids: at least 50%

## C#CCSC(=NC(=O)c1cnccc1C(F)(F)F)NCc1ccccc1 [Compound A-733]
[1]
  mortality among the aphids, by root-systemic action: at least 80%
[2]
  mortality among the aphids: at least 50%

## CN(C(=NC(=O)c1cnccc1C(F)(F)F)SCc1ccccc1)c1ccccc1 [Compound A-1332]
[1]
  mortality among the aphids, by root-systemic action: at least 80%

## C=CCSC(=NC(=O)c1cnccc1C(F)(F)F)NC(C)(C)C [Compound A-489]
[2]
  mortality among the aphids: at least 50%

## CCOC(CSC(=NC(=O)c1cnccc1C(F)(F)F)NCc1ccccc1)OCC [Compound A-740]
[1]
  mortality among the aphids, by root-systemic action: at least 80%

## C=CCSC(=NC(=O)c1cnccc1C(F)(F)F)N(C)Cc1ccccc1 [Compound A-776]
[1]
  mortality among the aphids, by root-systemic action: at least 80%
[2]
  mortality among the aphids: at least 50%

## CC(C)CN1CCSC1=NC(=O)c1cnccc1C(F)(F)F [Compound D-8]
[2]
  mortality among the aphids: at least 50%

## CC(C)CNC(=NC(=O)c1cnccc1C(F)(F)F)SCc1cccc(Cl)c1 [Compound A-460]
[2]
  mortality among the aphids: at least 50%

## CC(C)SC(=NC(=O)c1cnccc1C(F)(F)F)N(C)c1ccccc1 [Compound A-1324]
[1]
  mortality among the aphids, by root-systemic action: at least 80%
[2]
  mortality among the aphids: at least 50%

## CSC(=NC(=O)c1cnccc1C(F)(F)F)N1CCCC1 [Compound A-1063]
[1]
  mortality among the aphids, by root-systemic action: at least 80%
[2]
  mortality among the aphids: at least 50%

## CC(SC(=NC(=O)c1cnccc1C(F)(F)F)N(C)C)c1ccccc1 (centres unmarked) [Compound A-102]
[1]
  mortality among the aphids, by root-systemic action: at least 80%
[2]
  mortality among the aphids: at least 50%

## CCSC(=NC(=O)c1cnccc1C(F)(F)F)N(C)c1ccccc1 [Compound A-1322]
[1]
  mortality among the aphids, by root-systemic action: at least 80%
[2]
  mortality among the aphids: at least 50%

## C=CCSC(=NC(=O)c1cnccc1C(F)(F)F)N(C)c1ccccc1 [Compound A-1325, I-methyl-1-phenyl-S-(2-propenyl)-3-(4-trifluoromethyl-3-pyridylcarbonyl)isothiourea]
[1]
  mortality among the aphids, by root-systemic action: at least 80%

## CN1CCSC1=NC(=O)c1cnccc1C(F)(F)F [Compound D-2]
[1]
  mortality among the aphids, by root-systemic action: at least 80%
[2]
  mortality among the aphids: at least 50%

## CN(C)C(=NC(=O)c1cnccc1C(F)(F)F)SCc1cccc(C(F)(F)F)c1 [Compound A-94]
[1]
  mortality among the aphids, by root-systemic action: at least 80%
[2]
  mortality among the aphids: at least 50%

## CSC(=NC(=O)c1cnccc1C(F)(F)F)N(C)C [Compound A-53]
[1]
  mortality among the aphids, by root-systemic action: at least 80%
[2]
  mortality among the aphids: at least 50%

## C=C(C)CSC(=NC(=O)c1cnccc1C(F)(F)F)NCC(C)C [Compound A-438]
[1]
  mortality among the aphids, by root-systemic action: at least 80%
[2]
  mortality among the aphids: at least 50%

## C=CCSC(=NC(=O)c1cnccc1C(F)(F)F)N(CC)CCC [Compound A-576]
[1]
  mortality among the aphids, by root-systemic action: at least 80%
[2]
  mortality among the aphids: at least 50%

## COC(=O)CSC(=NC(=O)c1cnccc1C(F)(F)F)N(C)C [Compound A-84]
[1]
  mortality among the aphids, by root-systemic action: at least 80%

## C=CC(C)SC(=NC(=O)c1cnccc1C(F)(F)F)NC(C)C (centres unmarked) [Compound A-237]
[2]
  mortality among the aphids: at least 50%

## C=CCSC(=NC(=O)c1cnccc1C(F)(F)F)Nc1ccc(Cl)cc1 [Compound A-1275]
[1]
  mortality among the aphids, by root-systemic action: at least 80%
[2]
  mortality among the aphids: at least 50%

## C=CCSC(=NC(=O)c1cnccc1C(F)(F)F)N1CCCCC1 [Compound A-1108]
[1]
  mortality among the aphids, by root-systemic action: at least 80%
[2]
  mortality among the aphids: at least 50%

## CCSC(=NC(=O)c1cnccc1C(F)(F)F)NCc1ccccc1 [Compound A-715]
[1]
  mortality among the aphids, by root-systemic action: at least 80%
[2]
  mortality among the aphids: at least 50%

## CC(C)N1CCSC1=NC(=O)c1cnccc1C(F)(F)F [Compound D-5]
[1]
  mortality among the aphids, by root-systemic action: at least 80%
[2]
  mortality among the aphids: at least 50%

## O=C(N=C1NCCCS1)c1cnccc1C(F)(F)F [Compound H-1]
[1]
  mortality among the aphids, by root-systemic action: at least 80%
[2]
  mortality among the aphids: at least 50%

## Cn1ncsc1=NC(=O)c1cnccc1C(F)(F)F [Compound E-1]
[1]
  mortality among the aphids, by root-systemic action: at least 80%

## CN1C(=O)CSC1=NC(=O)c1cnccc1C(F)(F)F [Compound D-104]
[1]
  mortality among the aphids, by root-systemic action: at least 80%
[2]
  mortality among the aphids: at least 50%

## CC(C)CNC(=NC(=O)c1cnccc1C(F)(F)F)SCc1ccccc1 [Compound A-458]
[2]
  mortality among the aphids: at least 50%

## C=CCSC(=NC(=O)c1cnccc1C(F)(F)F)OCC [Compound C-43]
[1]
  mortality among the aphids, by root-systemic action: at least 80%
[2]
  mortality among the aphids: at least 50%

## CSC(=NC(=O)c1cnccc1C(F)(F)F)N(C)c1ccccc1 [Compound A-1321]
[1]
  mortality among the aphids, by root-systemic action: at least 80%
[2]
  mortality among the aphids: at least 50%

## O=C(N=C(Nc1ccc(Cl)cc1)SCc1ccccc1)c1cnccc1C(F)(F)F [Compound A-1279]
[2]
  mortality among the aphids: at least 50%

## CC(C)CSC(=NC(=O)c1cnccc1C(F)(F)F)N(C)C [Compound A-59]
[1]
  mortality among the aphids, by root-systemic action: at least 80%
[2]
  mortality among the aphids: at least 50%

## CC=CCSC(=NC(=O)c1cnccc1C(F)(F)F)NCC(C)C [Compound A-439]
[2]
  mortality among the aphids: at least 50%

## CN(C)C(=NC(=O)c1cnccc1C(F)(F)F)SCc1ccc(C(F)(F)F)cc1 [Compound A-95]
[1]
  mortality among the aphids, by root-systemic action: at least 80%
[2]
  mortality among the aphids: at least 50%

## CC1SC(=NC(=O)c2cnccc2C(F)(F)F)N(c2ccc(Cl)cc2)C1=O [Compound D-269]
[1]
  mortality among the aphids, by root-systemic action: at least 80%
[2]
  mortality among the aphids: at least 50%

## O=C(N=C(Nc1cccc(C(F)(F)F)c1)SCc1ccccc1)c1cnccc1C(F)(F)F [Compound A-1438]
[2]
  mortality among the aphids: at least 50%

## CC(C)(C)N1C(=O)CSC1=NC(=O)c1cnccc1C(F)(F)F [Compound D-111]
[1]
  mortality among the aphids, by root-systemic action: at least 80%
[2]
  mortality among the aphids: at least 50%

## CC1(C)SC(=NC(=O)c2cnccc2C(F)(F)F)N(c2ccc(Cl)cc2)C1=O [Compound D-372]
[1]
  mortality among the aphids, by root-systemic action: at least 80%

## CC1(C)SC(=NC(=O)c2cnccc2C(F)(F)F)N(Cc2ccccc2)C1=O [Compound D-349]
[2]
  mortality among the aphids: at least 50%

## C=C(Cl)CSC(=NC(=O)c1cnccc1C(F)(F)F)N(C)C [Compound A-67]
[1]
  mortality among the aphids, by root-systemic action: at least 80%
[2]
  mortality among the aphids: at least 50%

## CC1SC(=NC(=O)c2cnccc2C(F)(F)F)N(C(C)C)C1=O [Compound D-210]
[1]
  mortality among the aphids, by root-systemic action: at least 80%
[2]
  mortality among the aphids: at least 50%
